Experimental data taken from patent EP0098136A2, “Primary and secondary alcohol dehydrogenase enzymes and the use thereof” (priority 1982, dated 1984).
For at least one compound, name, drawing or mass did not settle the structure.

Test system: secondary alcohol dehydrogenase enzyme
Test: Inhibition of secondary alcohol dehydrogenase activity (oxidation of 2-propanol in the presence of potential inhibitors)
Format: biochemical, Pseudomonas fluorescens NRRL B-1244
Details: 1 mM inhibitor; oxidation of 2-propanol by purified enzyme
Description: The activity of the NAD^+-linked secondary alcohol dehydrogenase in each fraction was measured using a fluorescence spectrophotometer by monitoring the formation of reduced NAD^+ (excitation at 340 nm, emission at 460 nm). The assay system (3 ml) contained 150 µmole sodium phosphate buffer pH 7.0, 1.0 µmole NAD^+, a given amount of enzyme fraction, and 20 µ cmole 2-propanol substrate. […] Protein concentrations in each fraction were determined by the method of O.H. Lowry et al., J. Biol. Chem., 193, 255 (1951).
The oxidation of 2-propanol by the purified extract of secondary alcohol dehydrogenase enzyme was conducted in the presence of a lmM concentration of one of the metal chelating agents and thio-reagents listed in Table VI.

Question: How did the “% Inhibition” value turn out when `NC(N)=S` [thiourea] was run?
Answer: 0%
